These are yes or no findings as the source states them, for the method shown. In cells and extracts the contact can be indirect. Some entries that bind do so weakly or less than the wild type. Sequences can lack the tags named with a protein.
Assays:
[1] = target: T1, ALK2 fused to three copies of the FLAG epitope (3xFLAG-ALK2) (UniProt Q04771); test: co-IP; Huh7 cells transfected with tagged plasmids, harvested 24 h later, lysed in NET-buffer; immunoprecipitated with ANTI-FLAG M2 Affinity Gel, then immunoblot
T1 sequence: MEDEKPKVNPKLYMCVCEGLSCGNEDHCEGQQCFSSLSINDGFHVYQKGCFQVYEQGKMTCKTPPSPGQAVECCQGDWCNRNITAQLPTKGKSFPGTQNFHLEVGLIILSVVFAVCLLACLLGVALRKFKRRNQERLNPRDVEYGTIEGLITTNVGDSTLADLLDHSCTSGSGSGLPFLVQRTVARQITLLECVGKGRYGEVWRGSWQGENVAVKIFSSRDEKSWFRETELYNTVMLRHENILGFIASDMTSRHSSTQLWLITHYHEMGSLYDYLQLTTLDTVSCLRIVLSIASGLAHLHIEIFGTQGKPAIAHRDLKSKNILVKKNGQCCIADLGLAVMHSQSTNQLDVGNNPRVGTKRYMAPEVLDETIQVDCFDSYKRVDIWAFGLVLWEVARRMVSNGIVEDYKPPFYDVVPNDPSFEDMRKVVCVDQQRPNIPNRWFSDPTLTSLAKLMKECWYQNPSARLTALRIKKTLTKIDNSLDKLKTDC

Chains of the proteins cited; added tags and fusions are not shown. Residues count along the entry.
UniProt P36894, residues 24-532: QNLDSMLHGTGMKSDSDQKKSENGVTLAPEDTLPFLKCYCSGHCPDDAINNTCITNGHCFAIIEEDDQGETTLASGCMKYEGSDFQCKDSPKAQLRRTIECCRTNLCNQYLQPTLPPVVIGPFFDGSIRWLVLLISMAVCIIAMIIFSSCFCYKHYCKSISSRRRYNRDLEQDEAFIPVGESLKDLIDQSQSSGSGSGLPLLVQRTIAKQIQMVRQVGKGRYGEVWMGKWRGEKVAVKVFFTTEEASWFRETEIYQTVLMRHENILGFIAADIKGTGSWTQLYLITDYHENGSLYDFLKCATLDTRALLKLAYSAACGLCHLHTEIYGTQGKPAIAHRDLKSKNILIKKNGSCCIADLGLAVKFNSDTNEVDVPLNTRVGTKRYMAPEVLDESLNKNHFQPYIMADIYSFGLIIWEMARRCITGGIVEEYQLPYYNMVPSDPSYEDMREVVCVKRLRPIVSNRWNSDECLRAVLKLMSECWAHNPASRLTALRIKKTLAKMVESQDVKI

[2] = target: ALK3 fused to three copies of the FLAG epitope (3xFLAG-ALK3) (UniProt P36894); test: as above

B1: HFE fused to the cMyc epitope (HFE-cMyc) (protein, UniProt Q30201 23-348)
chain: RLLRSHSLHYLFMGASEQDLGLSLFEALGYVDDQLFVFYDHESRRVEPRTPWVSSRISSQMWLQLSQSLKGWDHMFTVDFWTIMENHNHSKESHTLQVILGCEMQEDNSTEGYWKYGYDGQDHLEFCPDTLDWRAAEPRAWPTKLEWERHKIRARQNRAYLERDCPAQLQQLLELGRGVLDQQVPPLVKVTHHVTSSVTTLRCRALNYYPQNITMKWLKDKQPMDAKEFEPKDVLPNGDGTYQGWITLAVPPGEEQRYTCQVEHPGLDQPLIVIWEPSPSGTLVIGVISGIAVFVVILFIGILFIILRKRQGSRGAMGHYVLAERE
binding [1]: no binding
binding [2]: binds
